Taken from: PubChem BioAssay AID1053209 (Peter MacCallum Cancer Centre, 2014)

Purpose: 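Gene losses that combine with doxorubicin to kill mouse bone cancer cells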 (follow-up of hits)
System: mouse primary osteosarcoma cells
Knock-down reagent: single siRNA against mouse genes, 25 nM (text also states 40 nM)
Time to read-out: about 120 h (48 h before drug, then 72 h with drug)
Challenge: doxorubicin 100 nM (about IC30-40), added 48 h after transfection, for 72 h
Measured: 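Viability measured by ATP luminescence with and without doxorubicin, each replicate scaled to non-targeting siRNA NT1, averaged over two replicates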
Direction: viability with doxorubicin, vs NT1: higher = more viable cells under doxorubicin; viability without drug, vs NT1: higher = more viable cells without drug
Call rule: 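Counted as active (class LC dox) if viability falls to 0.7 of NT1 or below under doxorubicin but stays within 0.7 to 1.1 without drug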
In all, the deposit lists about 1,580 reagents; shown is an unselected part. In the full data, 207 (13%) were called active. 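Rows are single siRNAs; four siRNAs per gene were tested, a gene counting as confirmed only when at least two agree.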 Entries without a mark were called inactive. The numbers tell different reagents against one gene apart. Further read-outs or replicates are left out here.

What did the screen give for Gsdmc #1?
combined effect class: normal viability with and without drug; viability with doxorubicin, vs NT1: 0.94; viability without drug, vs NT1: 1.07

With Gsdmc #2, what does the deposit list?
combined effect class: normal viability with and without drug; viability with doxorubicin, vs NT1: 0.79; viability without drug, vs NT1: 0.97

For Gsdmc #3, what was measured?
combined effect class: normal viability with and without drug; viability with doxorubicin, vs NT1: 1.02; viability without drug, vs NT1: 1.08

For Gsdmc #4, how do the results read?
combined effect class: high viability only with doxorubicin; viability with doxorubicin, vs NT1: 1.15; viability without drug, vs NT1: 1.06

With Or6c69b #1, what was measured?
combined effect class: normal viability with and without drug; viability with doxorubicin, vs NT1: 1.04; viability without drug, vs NT1: 1.05

With Or6c69b #2, what does the deposit list?
combined effect class: normal viability with and without drug; viability with doxorubicin, vs NT1: 1.02; viability without drug, vs NT1: 1

With Or6c69b #3, what does the deposit list?
combined effect class: normal viability with and without drug; viability with doxorubicin, vs NT1: 1.01; viability without drug, vs NT1: 1.02

With Or6c69b #4, what does the deposit list?
combined effect class: normal viability with and without drug; viability with doxorubicin, vs NT1: 0.82; viability without drug, vs NT1: 0.86

For Rrm2 #1, what does the deposit list?
combined effect class: low viability with and without drug; viability with doxorubicin, vs NT1: 0.29; viability without drug, vs NT1: 0.66

How did the screen score Rrm2 #2?
combined effect class: low viability with and without drug; viability with doxorubicin, vs NT1: 0.17; viability without drug, vs NT1: 0.5

How did the screen score Rrm2 #3?
combined effect class: low viability only with doxorubicin; normal without drug (active); viability with doxorubicin, vs NT1: 0.26; viability without drug, vs NT1: 0.74

How did the screen score Rrm2 #4?
combined effect class: low viability with and without drug; viability with doxorubicin, vs NT1: 0.12; viability without drug, vs NT1: 0.51

What is on record for Syt10 #1?
combined effect class: normal viability with and without drug; viability with doxorubicin, vs NT1: 1; viability without drug, vs NT1: 0.95

For Syt10 #2, what does the deposit list?
combined effect class: normal viability with and without drug; viability with doxorubicin, vs NT1: 1.08; viability without drug, vs NT1: 0.96

With Syt10 #3, what does the deposit list?
combined effect class: normal viability with and without drug; viability with doxorubicin, vs NT1: 0.94; viability without drug, vs NT1: 1

With Syt10 #4, what does the deposit list?
combined effect class: normal viability with and without drug; viability with doxorubicin, vs NT1: 1.06; viability without drug, vs NT1: 1.04

Targets above whose target name begins with S or s:
Syt10 #1 → combined effect class = normal viability with and without drug; viability with doxorubicin, vs NT1 = 1; viability without drug, vs NT1 = 0.95
Syt10 #2 → combined effect class = normal viability with and without drug; viability with doxorubicin, vs NT1 = 1.08; viability without drug, vs NT1 = 0.96
Syt10 #3 → combined effect class = normal viability with and without drug; viability with doxorubicin, vs NT1 = 0.94; viability without drug, vs NT1 = 1
Syt10 #4 → combined effect class = normal viability with and without drug; viability with doxorubicin, vs NT1 = 1.06; viability without drug, vs NT1 = 1.04

Further results follow.
How did the screen score Rps4x #1?
combined effect class: low viability with and without drug; viability with doxorubicin, vs NT1: 0.45; viability without drug, vs NT1: 0.6

What is on record for Rps4x #2?
combined effect class: low viability only with doxorubicin; normal without drug (active); viability with doxorubicin, vs NT1: 0.36; viability without drug, vs NT1: 0.71

For Rps4x #3, what was measured?
combined effect class: low viability with and without drug; viability with doxorubicin, vs NT1: 0.32; viability without drug, vs NT1: 0.46

How did the screen score Rps4x #4?
combined effect class: low viability only with doxorubicin; normal without drug (active); viability with doxorubicin, vs NT1: 0.69; viability without drug, vs NT1: 0.72

How did the screen score E2f2 #1?
combined effect class: normal viability with and without drug; viability with doxorubicin, vs NT1: 1.06; viability without drug, vs NT1: 1

With E2f2 #2, what was measured?
combined effect class: normal viability with and without drug; viability with doxorubicin, vs NT1: 0.92; viability without drug, vs NT1: 0.92

What did the screen give for E2f2 #3?
combined effect class: normal viability with and without drug; viability with doxorubicin, vs NT1: 1.09; viability without drug, vs NT1: 1.02

How did the screen score E2f2 #4?
combined effect class: normal viability with and without drug; viability with doxorubicin, vs NT1: 1.01; viability without drug, vs NT1: 0.94
